The values below are quoted from earlier work in patent US7687496B2, “C7-substituted camptothecin analogs” (priority 2007, dated 2010).

The conditions of this data set: closed E-ring lactone form; cited from earlier work.

`CC[C@@]1(O)C(=O)OCc2c1cc1n(c2=O)Cc2cc3ccccc3nc2-1` [CPT, (S)-4-Ethyl-4-hydroxy-1H-pyrano[3′,4′:6,7]indolizino[1,2-b]quinoline-3,14(4H,12H)-dione]: the solubility in water entry was “approximately 0.1 μg/mL”.
